According to the supplement of paper PMC6411743:
± gives the standard deviation of the averaged measurements. This is one part of the list.

Amino acid sequences for entries named in this document (tags omitted). A change or cut given only in a name is not applied to a line headed by its entry.
UniProt Q96N46: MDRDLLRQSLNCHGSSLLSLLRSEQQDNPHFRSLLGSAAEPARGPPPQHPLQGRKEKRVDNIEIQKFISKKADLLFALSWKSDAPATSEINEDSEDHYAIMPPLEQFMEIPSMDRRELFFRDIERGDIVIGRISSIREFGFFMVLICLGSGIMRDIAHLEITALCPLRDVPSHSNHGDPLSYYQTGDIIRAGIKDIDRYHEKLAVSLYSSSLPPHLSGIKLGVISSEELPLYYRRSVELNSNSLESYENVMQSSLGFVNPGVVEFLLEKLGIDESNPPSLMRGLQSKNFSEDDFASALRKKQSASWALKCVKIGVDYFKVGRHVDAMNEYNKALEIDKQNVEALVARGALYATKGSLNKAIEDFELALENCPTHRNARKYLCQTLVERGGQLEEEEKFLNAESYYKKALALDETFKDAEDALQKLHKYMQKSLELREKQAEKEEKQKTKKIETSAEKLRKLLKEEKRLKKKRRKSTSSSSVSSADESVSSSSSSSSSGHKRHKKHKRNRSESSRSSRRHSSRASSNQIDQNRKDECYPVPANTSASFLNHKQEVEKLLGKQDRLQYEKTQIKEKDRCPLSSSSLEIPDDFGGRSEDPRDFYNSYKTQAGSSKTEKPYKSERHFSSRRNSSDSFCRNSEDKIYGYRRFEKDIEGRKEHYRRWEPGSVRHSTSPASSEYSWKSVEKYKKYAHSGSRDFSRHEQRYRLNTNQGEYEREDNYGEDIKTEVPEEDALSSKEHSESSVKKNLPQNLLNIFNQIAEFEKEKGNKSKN
UniProt Q9BW92: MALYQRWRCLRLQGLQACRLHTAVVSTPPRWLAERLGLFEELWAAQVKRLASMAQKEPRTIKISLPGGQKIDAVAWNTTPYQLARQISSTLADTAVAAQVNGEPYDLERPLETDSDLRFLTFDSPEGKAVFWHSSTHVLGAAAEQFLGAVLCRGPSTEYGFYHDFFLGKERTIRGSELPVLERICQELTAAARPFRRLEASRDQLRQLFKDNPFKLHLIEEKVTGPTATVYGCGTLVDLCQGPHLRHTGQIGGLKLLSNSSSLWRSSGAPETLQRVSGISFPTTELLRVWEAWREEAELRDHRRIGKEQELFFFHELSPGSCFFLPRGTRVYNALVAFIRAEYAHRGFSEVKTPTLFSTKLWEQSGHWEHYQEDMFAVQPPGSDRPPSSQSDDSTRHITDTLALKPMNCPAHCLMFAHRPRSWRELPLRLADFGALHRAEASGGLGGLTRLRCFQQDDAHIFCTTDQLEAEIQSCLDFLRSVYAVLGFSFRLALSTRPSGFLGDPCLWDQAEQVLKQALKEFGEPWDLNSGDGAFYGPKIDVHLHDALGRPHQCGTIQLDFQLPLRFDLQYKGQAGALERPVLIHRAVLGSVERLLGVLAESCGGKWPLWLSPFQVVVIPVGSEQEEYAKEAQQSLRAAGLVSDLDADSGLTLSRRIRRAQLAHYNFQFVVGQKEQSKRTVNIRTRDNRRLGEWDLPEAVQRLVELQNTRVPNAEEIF
UniProt Q96M27: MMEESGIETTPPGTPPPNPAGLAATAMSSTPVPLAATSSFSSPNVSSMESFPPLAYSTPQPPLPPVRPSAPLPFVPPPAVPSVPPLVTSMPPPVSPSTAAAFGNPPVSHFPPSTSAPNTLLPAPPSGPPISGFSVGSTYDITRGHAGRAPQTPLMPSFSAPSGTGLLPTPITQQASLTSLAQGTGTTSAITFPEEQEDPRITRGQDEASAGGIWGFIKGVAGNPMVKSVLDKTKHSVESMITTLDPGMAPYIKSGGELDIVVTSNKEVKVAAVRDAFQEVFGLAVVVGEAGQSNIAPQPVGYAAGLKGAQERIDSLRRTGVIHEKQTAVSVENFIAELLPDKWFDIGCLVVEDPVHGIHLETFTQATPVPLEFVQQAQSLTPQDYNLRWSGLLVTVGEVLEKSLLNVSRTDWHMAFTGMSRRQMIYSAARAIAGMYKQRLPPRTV
UniProt Q9BTT4: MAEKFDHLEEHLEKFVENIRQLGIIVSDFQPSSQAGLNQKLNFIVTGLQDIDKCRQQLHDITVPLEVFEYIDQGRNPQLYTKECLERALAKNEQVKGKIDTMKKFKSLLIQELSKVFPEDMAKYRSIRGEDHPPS
UniProt Q96PY6: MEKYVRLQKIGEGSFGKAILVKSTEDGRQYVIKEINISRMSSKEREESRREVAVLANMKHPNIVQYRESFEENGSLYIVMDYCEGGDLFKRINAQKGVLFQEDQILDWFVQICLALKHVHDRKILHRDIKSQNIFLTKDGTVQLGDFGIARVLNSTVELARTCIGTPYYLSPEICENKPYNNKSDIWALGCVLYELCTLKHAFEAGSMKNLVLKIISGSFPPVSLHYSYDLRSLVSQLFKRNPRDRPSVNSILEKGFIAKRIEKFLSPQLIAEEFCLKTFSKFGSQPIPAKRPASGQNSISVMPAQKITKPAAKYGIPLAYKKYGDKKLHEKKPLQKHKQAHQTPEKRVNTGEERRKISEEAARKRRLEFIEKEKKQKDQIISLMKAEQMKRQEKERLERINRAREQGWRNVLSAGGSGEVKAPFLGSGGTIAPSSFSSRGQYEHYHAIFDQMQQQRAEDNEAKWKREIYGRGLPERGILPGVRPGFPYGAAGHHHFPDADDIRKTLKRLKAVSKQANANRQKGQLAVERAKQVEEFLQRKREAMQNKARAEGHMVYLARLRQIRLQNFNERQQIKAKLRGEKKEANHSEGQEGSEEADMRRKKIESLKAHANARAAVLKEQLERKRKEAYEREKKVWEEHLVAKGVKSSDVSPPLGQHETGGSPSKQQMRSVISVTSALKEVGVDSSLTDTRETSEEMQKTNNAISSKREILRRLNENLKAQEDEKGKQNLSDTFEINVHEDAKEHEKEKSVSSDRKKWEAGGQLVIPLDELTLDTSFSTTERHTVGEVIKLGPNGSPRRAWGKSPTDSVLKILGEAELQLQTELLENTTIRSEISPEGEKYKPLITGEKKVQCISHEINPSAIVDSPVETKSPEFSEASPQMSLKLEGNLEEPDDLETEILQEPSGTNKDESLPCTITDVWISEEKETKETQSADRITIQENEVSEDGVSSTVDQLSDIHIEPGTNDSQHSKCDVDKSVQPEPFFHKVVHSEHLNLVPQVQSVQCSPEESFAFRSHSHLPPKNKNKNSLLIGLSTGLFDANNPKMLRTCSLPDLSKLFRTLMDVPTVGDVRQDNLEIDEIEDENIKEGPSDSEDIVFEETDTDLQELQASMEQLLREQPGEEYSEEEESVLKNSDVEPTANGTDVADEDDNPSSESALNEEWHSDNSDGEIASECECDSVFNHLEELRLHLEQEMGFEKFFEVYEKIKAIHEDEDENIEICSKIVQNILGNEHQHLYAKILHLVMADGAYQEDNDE
UniProt Q9BUT1: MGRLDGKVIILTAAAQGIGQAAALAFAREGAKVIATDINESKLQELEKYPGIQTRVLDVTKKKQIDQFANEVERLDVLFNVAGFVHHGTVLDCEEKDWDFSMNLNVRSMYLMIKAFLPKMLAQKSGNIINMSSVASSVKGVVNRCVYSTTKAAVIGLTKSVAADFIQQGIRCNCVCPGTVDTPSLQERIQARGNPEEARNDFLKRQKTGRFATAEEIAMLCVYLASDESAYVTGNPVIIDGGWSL
UniProt Q99728: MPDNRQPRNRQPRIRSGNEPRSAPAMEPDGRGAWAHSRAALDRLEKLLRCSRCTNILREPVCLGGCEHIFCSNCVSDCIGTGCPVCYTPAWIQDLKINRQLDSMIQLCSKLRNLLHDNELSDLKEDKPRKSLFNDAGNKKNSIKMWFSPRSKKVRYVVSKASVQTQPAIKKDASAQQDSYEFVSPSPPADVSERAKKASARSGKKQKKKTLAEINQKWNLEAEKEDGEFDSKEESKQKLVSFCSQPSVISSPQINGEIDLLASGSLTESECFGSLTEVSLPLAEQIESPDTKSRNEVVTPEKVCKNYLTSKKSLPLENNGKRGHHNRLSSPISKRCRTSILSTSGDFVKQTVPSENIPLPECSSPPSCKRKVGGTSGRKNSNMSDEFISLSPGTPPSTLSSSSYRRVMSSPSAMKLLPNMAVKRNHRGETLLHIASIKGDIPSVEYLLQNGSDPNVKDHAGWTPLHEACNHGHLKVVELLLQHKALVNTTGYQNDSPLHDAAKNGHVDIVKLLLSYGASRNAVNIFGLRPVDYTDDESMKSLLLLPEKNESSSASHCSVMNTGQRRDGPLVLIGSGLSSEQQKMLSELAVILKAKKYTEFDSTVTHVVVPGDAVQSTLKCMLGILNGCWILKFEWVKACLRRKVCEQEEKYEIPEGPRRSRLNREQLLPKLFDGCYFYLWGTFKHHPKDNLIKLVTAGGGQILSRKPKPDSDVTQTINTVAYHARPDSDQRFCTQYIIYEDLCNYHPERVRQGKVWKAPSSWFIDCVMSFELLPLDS
UniProt Q9BW91: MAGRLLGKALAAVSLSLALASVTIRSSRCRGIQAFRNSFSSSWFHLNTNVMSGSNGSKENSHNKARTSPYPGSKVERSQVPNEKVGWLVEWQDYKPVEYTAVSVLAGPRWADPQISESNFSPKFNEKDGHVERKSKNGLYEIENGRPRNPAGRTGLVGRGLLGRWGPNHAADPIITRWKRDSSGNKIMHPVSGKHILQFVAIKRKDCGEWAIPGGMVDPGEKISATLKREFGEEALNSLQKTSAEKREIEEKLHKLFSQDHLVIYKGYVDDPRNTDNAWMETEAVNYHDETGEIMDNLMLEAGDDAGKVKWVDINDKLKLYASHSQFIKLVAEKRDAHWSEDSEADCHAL
UniProt Q9BRU9: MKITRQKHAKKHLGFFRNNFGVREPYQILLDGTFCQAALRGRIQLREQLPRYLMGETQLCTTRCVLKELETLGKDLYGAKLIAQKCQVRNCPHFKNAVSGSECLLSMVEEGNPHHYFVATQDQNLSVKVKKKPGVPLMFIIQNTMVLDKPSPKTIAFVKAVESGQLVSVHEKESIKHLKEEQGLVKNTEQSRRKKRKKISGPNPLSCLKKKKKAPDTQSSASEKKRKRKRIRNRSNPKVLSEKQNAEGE
UniProt Q96N64: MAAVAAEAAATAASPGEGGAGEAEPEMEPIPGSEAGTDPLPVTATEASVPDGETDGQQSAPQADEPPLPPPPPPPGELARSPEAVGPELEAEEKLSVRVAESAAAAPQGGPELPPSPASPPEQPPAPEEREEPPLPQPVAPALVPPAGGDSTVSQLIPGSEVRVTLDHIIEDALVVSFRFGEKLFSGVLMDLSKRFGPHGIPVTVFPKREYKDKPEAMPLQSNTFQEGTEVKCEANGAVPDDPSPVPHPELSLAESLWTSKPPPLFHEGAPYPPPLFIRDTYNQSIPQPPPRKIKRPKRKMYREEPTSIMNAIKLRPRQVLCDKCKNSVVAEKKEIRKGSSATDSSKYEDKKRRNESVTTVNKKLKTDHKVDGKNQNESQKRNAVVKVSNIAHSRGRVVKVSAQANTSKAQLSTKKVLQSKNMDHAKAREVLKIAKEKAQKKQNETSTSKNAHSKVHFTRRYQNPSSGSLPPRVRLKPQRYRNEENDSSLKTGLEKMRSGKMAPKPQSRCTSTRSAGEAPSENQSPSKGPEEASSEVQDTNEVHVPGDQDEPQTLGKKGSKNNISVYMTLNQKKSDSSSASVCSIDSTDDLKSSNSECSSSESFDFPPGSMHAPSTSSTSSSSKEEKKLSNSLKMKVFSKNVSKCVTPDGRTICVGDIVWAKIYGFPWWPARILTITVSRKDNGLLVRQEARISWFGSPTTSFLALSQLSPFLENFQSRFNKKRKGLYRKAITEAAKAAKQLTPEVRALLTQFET
UniProt Q9BQ67, whole entry: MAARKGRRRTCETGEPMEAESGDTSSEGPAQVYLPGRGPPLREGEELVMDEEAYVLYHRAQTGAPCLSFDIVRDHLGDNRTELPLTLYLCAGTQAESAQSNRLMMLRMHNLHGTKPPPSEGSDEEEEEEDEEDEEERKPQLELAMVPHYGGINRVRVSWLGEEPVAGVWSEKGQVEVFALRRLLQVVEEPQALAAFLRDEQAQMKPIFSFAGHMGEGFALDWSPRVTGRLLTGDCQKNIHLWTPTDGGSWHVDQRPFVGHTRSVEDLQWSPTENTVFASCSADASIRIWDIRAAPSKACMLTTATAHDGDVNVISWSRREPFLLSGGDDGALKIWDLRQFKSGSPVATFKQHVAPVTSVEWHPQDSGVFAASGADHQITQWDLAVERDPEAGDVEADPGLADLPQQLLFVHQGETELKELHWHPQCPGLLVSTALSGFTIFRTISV
UniProt Q9BYB4: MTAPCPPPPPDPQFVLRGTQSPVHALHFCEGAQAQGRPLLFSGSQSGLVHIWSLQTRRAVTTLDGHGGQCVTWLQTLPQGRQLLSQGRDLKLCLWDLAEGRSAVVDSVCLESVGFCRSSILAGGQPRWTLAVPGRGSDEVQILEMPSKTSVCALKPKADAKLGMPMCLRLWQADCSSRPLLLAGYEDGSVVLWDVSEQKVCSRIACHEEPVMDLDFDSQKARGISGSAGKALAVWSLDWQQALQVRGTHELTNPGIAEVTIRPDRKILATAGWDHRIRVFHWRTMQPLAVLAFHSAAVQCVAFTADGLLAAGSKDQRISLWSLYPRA

Compound: Nc1nc2c(ncn2[C@@H]2O[C@H](COP(=O)(O)OP(=O)(O)OP(=O)(O)O)[C@@H](O)[C@H]2O)c(=O)[nH]1 [guanosine triphosphate]
Assay: NP40-soluble protein abundance relative to vehicle (solubility fold change) (ratio); higher = more soluble protein in presence of GTP
Summary of the method: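 In three independent experiments, Jurkat crude lysate made by Dounce homogenisation was treated for 10 min at room temperature and then 3 min at 37 °C with eight concentrations ranging from 0.1 to 10 mM. It was then solubilised with 0.8% NP40 plus benzonase for 60 min at 4 °C and ultracentrifuged. The supernatant was TMT-labelled for LC-MS/MS, and each value is the fold change against the detergent-processed vehicle for the same replicate, using vsn-normalised intensities.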

Target	NP40-soluble protein abundance (concentration: 0.1mM)	NP40-soluble protein abundance (concentration: 0.5mM)	NP40-soluble protein abundance (concentration: 1mM)	NP40-soluble protein abundance (concentration: 2mM)	NP40-soluble protein abundance (concentration: 4mM)	NP40-soluble protein abundance (concentration: 6mM)	NP40-soluble protein abundance (concentration: 8mM)	NP40-soluble protein abundance (concentration: 10mM)
UniProt Q96N46 and related entries	1.092 ± 0.0039	0.984 ± 0.027	0.998 ± 0.028	1.07 ± 0.027	1.16 ± 0.12	1 ± 0.042	1.06 ± 0.077	1.06 ± 0.077
UniProt Q96PE3 and related entries	1.06 ± 0.021	1.07 ± 0.079	0.945 ± 0.015	0.953 ± 0.048	0.948 ± 0.049	0.939 ± 0.04	0.907 ± 0.054	0.886 ± 0.081
TARS2 (UniProt Q9BW92)	1.02 ± 0.077	1.06 ± 0.1	1 ± 0.03	1.02 ± 0.087	0.988 ± 0.067	0.953 ± 0.055	0.921 ± 0.041	0.924 ± 0.087
PRRC1 (UniProt Q96M27)	0.946 ± 0.045	0.947 ± 0.046	0.914 ± 0.073	0.898 ± 0.058	0.877 ± 0.084	0.88 ± 0.057	0.865 ± 0.079	0.878 ± 0.053
UniProt Q96S66 and related entries	0.976 ± 0.045	1.01 ± 0.12	0.961 ± 0.025	0.943 ± 0.087	0.934 ± 0.091	0.978 ± 0.043	0.994 ± 0.071	1.01 ± 0.093
ATAD5 (UniProt Q96QE3)	1.14 ± 0.1	0.98 ± 0.02	1.08 ± 0.025	1.12 ± 0.022	1.2 ± 0.038	1.17 ± 0.018	1.15 ± 0.051	1.12 ± 0.045
UniProt Q96Q11 and related entries	0.997 ± 0.014	0.971 ± 0.018	0.929 ± 0.015	0.903 ± 0.025	0.891 ± 0.04	0.877 ± 0.037	0.875 ± 0.043	0.855 ± 0.047
VPS35 (UniProt Q96QK1)	1.03 ± 0.082	1.04 ± 0.093	0.913 ± 0.048	0.958 ± 0.13	0.929 ± 0.11	0.912 ± 0.086	0.833 ± 0.048	0.868 ± 0.093
NUP88 (UniProt Q99567)	1.03 ± 0.072	1.05 ± 0.05	0.993 ± 0.082	1.04 ± 0.074	1.03 ± 0.073	1.08 ± 0.081	1.11 ± 0.099	1.13 ± 0.063
UniProt Q9BZE9 and related entries	0.988 ± 0.046	1.01 ± 0.084	1.04 ± 0.073	1.02 ± 0.062	1.01 ± 0.062	1.02 ± 0.025	1.05 ± 0.063	1 ± 0.075
MED10 (UniProt Q9BTT4)	1.01 ± 0.2	1.03 ± 0.098	0.973 ± 0.028	1.07 ± 0.11	0.95 ± 0.094	1.08 ± 0.05	0.968 ± 0.092	1.07 ± 0.038
UniProt Q96PY6 and related entries	1.03 ± 0.06	1.03 ± 0.096	1.09 ± 0.07	1.12 ± 0.015	1.11 ± 0.069	1.119 ± 0.0043	1.16 ± 0.078	1.07 ± 0.034
BDH2 (UniProt Q9BUT1)	0.993 ± 0.06	0.958 ± 0.062	0.966 ± 0.096	0.961 ± 0.047	0.95 ± 0.12	0.917 ± 0.073	0.915 ± 0.15	0.911 ± 0.12
UniProt Q99081 and related entries	0.99 ± 0.1	0.989 ± 0.086	0.96 ± 0.081	0.977 ± 0.1	0.954 ± 0.057	0.954 ± 0.033	0.983 ± 0.044	0.999 ± 0.084
RANBP9 (UniProt Q96S59)	1.04 ± 0.048	1.08 ± 0.11	1.09 ± 0.11	1.1 ± 0.15	1.13 ± 0.16	1.11 ± 0.2	1.1 ± 0.19	1.05 ± 0.18
UniProt Q99728 and related entries	1.1 ± 0.29	0.982 ± 0.005	1.16 ± 0.23	1.05 ± 0.051	1.06 ± 0.038	1.05 ± 0.097	1.13 ± 0.27	1.12 ± 0.23
PTDSS2 (UniProt Q9BVG9)	1.05 ± 0.05	1.08 ± 0.063	0.963 ± 0.062	0.976 ± 0.034	0.964 ± 0.054	0.97 ± 0.085	0.976 ± 0.095	0.978 ± 0.083
UniProt Q9BW91 and related entries	0.985 ± 0.062	0.97 ± 0.09	0.995 ± 0.061	0.95 ± 0.099	0.982 ± 0.1	0.974 ± 0.083	0.993 ± 0.043	0.956 ± 0.05
UniProt Q9BV73 and related entries	1.09 ± 0.063	1.04 ± 0.08	1.09 ± 0.07	1.13 ± 0.074	1.12 ± 0.036	1.06 ± 0.029	1.08 ± 0.061	1.16 ± 0.021
UTP23 (UniProt Q9BRU9)	1.04 ± 0.043	1.17 ± 0.1	1.06 ± 0.043	1.35 ± 0.029	1.472 ± 0.01	1.57 ± 0.16	1.44 ± 0.1	1.62 ± 0.035
UniProt Q9BVS4 and related entries	1.07 ± 0.084	1.21 ± 0.25	1.11 ± 0.18	1.13 ± 0.2	1.07 ± 0.18	1.11 ± 0.23	1.16 ± 0.27	1.19 ± 0.29
UniProt Q9BWS9 and related entries	1.12 ± 0.048	1.07 ± 0.016	0.985 ± 0.043	1 ± 0.072	1.03 ± 0.057	1 ± 0.063	1.04 ± 0.051	0.947 ± 0.11
UniProt Q96N64 and related entries	1.01 ± 0.059	0.977 ± 0.13	1.04 ± 0.068	1.08 ± 0.096	1.12 ± 0.15	1.12 ± 0.12	1.19 ± 0.13	1.3 ± 0.15
UBAC1 (UniProt Q9BSL1)	1.01 ± 0.039	0.975 ± 0.036	0.928 ± 0.063	0.976 ± 0.025	1.03 ± 0.029	0.965 ± 0.034	0.945 ± 0.049	0.999 ± 0.071
ZFR (UniProt Q96KR1)	1.09 ± 0.066	1.09 ± 0.044	1.18 ± 0.13	1.18 ± 0.11	1.22 ± 0.11	1.23 ± 0.14	1.27 ± 0.18	1.23 ± 0.15
IPO9 (UniProt Q96P70)	1.02 ± 0.02	0.984 ± 0.014	0.95 ± 0.022	0.9734 ± 0.006	0.9551 ± 0.0068	0.956 ± 0.022	0.951 ± 0.032	0.926 ± 0.028
GRWD1 (UniProt Q9BQ67)	0.947 ± 0.0056	0.949 ± 0.037	0.971 ± 0.025	0.969 ± 0.06	0.97 ± 0.043	1.03 ± 0.017	1.01 ± 0.045	1.02 ± 0.082
GNB1L (UniProt Q9BYB4)	1 ± 0.031	1.01 ± 0.035	0.945 ± 0.066	0.939 ± 0.057	0.932 ± 0.055	0.919 ± 0.056	0.919 ± 0.072	0.911 ± 0.12
GPATCH1 (UniProt Q9BRR8)	1.02 ± 0.03	0.998 ± 0.02	1.04 ± 0.057	1.1 ± 0.1	1.1 ± 0.072	1.05 ± 0.086	1.17 ± 0.11	1.22 ± 0.064
UniProt Q9BQP7	0.966 ± 0.04	0.955 ± 0.013	0.993 ± 0.062	0.959 ± 0.066	0.956 ± 0.096	0.938 ± 0.059	0.948 ± 0.073	0.943 ± 0.062

Quoted from the listing:
ZFR (UniProt Q96KR1) – NP40-soluble protein abundance (concentration: 1mM): 1.18 ± 0.13
GPATCH1 (UniProt Q9BRR8) – NP40-soluble protein abundance (concentration: 1mM): 1.04 ± 0.057
